Test results published in PubChem BioAssay AID540275 (National Center for Advancing Translational Sciences (NCATS), 2011).
Out of some 320,000 compounds screened, about 620 (0.19%) were called active. Inconclusive means that the source gave no clear call. Such entries were picked first, then a sample of the others. Cut-off read from the data, not from the text of the source: active = activation above about 80%; inconclusive = between about 30% and that limit; inactive = weaker than that.

Amino acid sequences for entries named in this document (tags omitted).
UniProt Q8NER1, whole entry, looked up: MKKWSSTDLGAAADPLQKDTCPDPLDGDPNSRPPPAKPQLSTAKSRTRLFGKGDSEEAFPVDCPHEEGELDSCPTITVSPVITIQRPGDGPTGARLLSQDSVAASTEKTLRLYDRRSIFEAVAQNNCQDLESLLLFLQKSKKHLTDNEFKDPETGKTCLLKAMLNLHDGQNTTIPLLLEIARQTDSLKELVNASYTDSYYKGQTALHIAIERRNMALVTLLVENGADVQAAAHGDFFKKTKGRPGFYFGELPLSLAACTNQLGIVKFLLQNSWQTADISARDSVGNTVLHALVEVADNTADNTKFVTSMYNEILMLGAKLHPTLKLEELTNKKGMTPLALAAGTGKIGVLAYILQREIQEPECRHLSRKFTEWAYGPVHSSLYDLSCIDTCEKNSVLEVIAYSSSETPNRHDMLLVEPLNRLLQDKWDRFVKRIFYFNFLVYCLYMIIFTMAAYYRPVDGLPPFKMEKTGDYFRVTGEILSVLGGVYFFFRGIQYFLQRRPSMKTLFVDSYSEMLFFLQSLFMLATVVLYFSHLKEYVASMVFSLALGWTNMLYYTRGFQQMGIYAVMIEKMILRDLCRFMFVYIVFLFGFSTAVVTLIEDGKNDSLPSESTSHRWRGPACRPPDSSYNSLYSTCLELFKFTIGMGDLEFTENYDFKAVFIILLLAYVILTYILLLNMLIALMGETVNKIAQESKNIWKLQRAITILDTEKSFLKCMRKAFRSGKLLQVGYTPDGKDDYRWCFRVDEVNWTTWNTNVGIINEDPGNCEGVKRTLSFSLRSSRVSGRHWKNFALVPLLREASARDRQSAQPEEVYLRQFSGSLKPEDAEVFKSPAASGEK

Each compound was assayed against Transient receptor potential cation channel subfamily V member 1 (Homo sapiens) (UniProt Q8NER1) (assay: HTS Assay for Compounds that Act as Agonists of the Vanilloid Receptor 1). Conditions: TRPV1-expressing cells, Fluo-8 calcium influx, agonist mode; at 8.33 µM, active compounds read high.
In short: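 Fluo-8 calcium influx in TRPV1-expressing cells, kinetic read (ex 480/em 520 nm). Compound added and read 3 min for agonist activity, followed by capsaicin at EC20 final and 2 min further read for enhancement.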
Note: 0% is about no effect.

Row | SMILES | activation
1 | CC(C)(C)C(=O)N1CCN(c2ccc(Cl)cc2[N+](=O)[O-])CC1 | inconclusive: 62.8%
2 | Cc1cccc(-c2onc3ccc(C4(C)OCCO4)cc23)c1 | inconclusive: 30.5%
3 | CCS(=O)(=O)c1cccc(C(=O)N2CCN(c3nc4c(C)ccc(Cl)c4s3)CC2)c1 | inactive: 13%
4 | Cc1[nH]n(-c2ccccc2)c(=O)c1/C=N/NC(=O)COc1ccccc1[N+](=O)[O-] | inactive: -4.8%
5 | Cc1ccc(NC(=S)Nc2ccccn2)cc1C | inconclusive: 31.9%
6 | CC(c1ccccc1)N1C(=O)c2ccccc2C1(O)Cc1ccccc1 (configuration not stated) | inconclusive: 71.3%
7 | Cc1ccc(NCCC(=O)c2cccs2)cc1 | inconclusive: 45.6%
8 | CC(C)(NC(=O)NC(CO)c1ccccc1)c1cccc(C(C)(C)NC(=O)NC(CO)c2ccccc2)c1 (configuration not stated) | inactive: -3.57%
9 | COc1cccc(NC(=O)C2CCN(S(=O)(=O)c3ccccc3)CC2)c1 | inconclusive: 44%
10 | COc1ccc(Cc2nnc(Nc3ccc(C)cc3)o2)cc1OC | inconclusive: 34.8%
11 | Cc1ccc(C(=O)C2CCN(CC(=O)NCc3ccc(F)cc3)CC2)cc1 | inconclusive: 40.2%
12 | COC(=O)c1ccc(NC(=O)CCN2CCN(c3ccccc3)CC2)cc1 | inconclusive: 41%
13 | CN(C)S(=O)(=O)c1cc(C(=O)Nc2ccccc2C(=O)NC2CC2)ccc1Cl | inconclusive: 46.7%
14 | O=C(NCC1CCCCC1)c1ccc(F)c(S(=O)(=O)N2CCOCC2)c1 | inconclusive: 57.3%
15 | CCC(C)c1ccc(NC(=S)NCc2cccnc2)cc1 (configuration not stated) | inconclusive: 43%
16 | COC(=O)CCn1nc(-c2ccc(C)cc2)c2ccccc2c1=O | inactive: 3.25%
17 | Cc1ccc(C(=O)Nc2nc3c(s2)CCCC3)o1 | inconclusive: 60%
18 | CCCCCOC(=O)c1[nH]c2c(c1C)C(=O)CC(c1ccco1)C2 (configuration not stated) | inconclusive: 57.3%
19 | Cc1ccccc1CNS(=O)(=O)c1c(C(=O)N2CCCC2)c(C)n(C)c1C | inactive: -5.51%

Row | SMILES | activation
20 | COC(=O)c1cccc(NC(=S)NCc2ccc(Cl)cc2)c1 | active: 82.3%
21 | Cc1ccc2nc(SCC(=O)Nc3ccc4c(c3)CCC4)[nH]c2c1 | inconclusive: 44.8%
22 | Nc1nonc1-n1nnc(C(=O)N/N=C/c2cccnc2)c1CSc1ccc(Cl)cc1 | inconclusive: 60.6%
23 | O=C(NC(=S)Nc1c(F)cc(F)cc1Br)c1ccc2c(c1)OCCO2 | inactive: 4.81%
24 | CCN(CC)Cc1c(O)ccc2c1O/C(=C\C=C\c1ccccc1)C2=O | inactive: 14.2%
25 | COc1ccc(CC(=O)Nc2ccc3nc(SC)sc3c2)cc1OC | inconclusive: 64.5%
26 | Cc1c(NC(=S)NC(=O)C(C)(C)C)cccc1[N+](=O)[O-] | inconclusive: 46.8%
27 | N#C/C(=C\c1ccc(OCC(N)=O)cc1)c1ccccc1 | inconclusive: 45.7%
28 | CCOC(=O)c1c(NC(=O)C(=O)N/N=C/c2ccccc2O)sc2c1CCCCC2 | inactive: 2.31%
29 | OCc1ccc2c(c1)c(-c1ccc3c(c1)OCCO3)c(-c1ccccc1)n2-c1ccccc1 | inconclusive: 30.2%
30 | O=C(N/N=C/c1c[nH]c2ccccc12)c1[nH]c2ccc(Br)cc2c1-c1ccccc1 | inactive: -0.797%
31 | CC(=O)c1ccc(-c2ccc(C(=O)N3CCCc4ccccc43)o2)cc1 | inconclusive: 31.5%
32 | CCCCCn1c(=N)c(S(=O)(=O)c2ccc(Br)cc2)cc2c(=O)n3cccc(C)c3nc21 | inconclusive: 63.1%
33 | Cc1c(C(=O)OCC2CCCO2)[nH]c2c1C(=O)CC(c1ccco1)C2 (configuration not stated) | inconclusive: 30.8%
34 | CC(C)(C)OC(=O)Nc1ccc([C@H](NC(=O)OC(C)(C)C)C(=O)OC(C)(C)C)cc1 | inconclusive: 37.5%
35 | COc1ccc(/C=C/C(=O)C2CC2)cc1COc1cccc(C)c1C | inconclusive: 50.4%
36 | CC1CCCC(NC(=O)Nc2cccs2)C1C (configuration not stated) | inconclusive: 32.5%
37 | CC(=O)c1ccc(OCc2cc(C(=O)N(C)C3CCOC3)no2)cc1 (configuration not stated) | inactive: -3.77%
38 | CCOC(=O)c1c(C)oc2c1c(C(c1ccncc1)N1CCOCC1)c(O)c1ccccc12 (configuration not stated) | inconclusive: 51%

Row | SMILES | activation
39 | O=C(Nc1ccc2nc3ccccc3nc2c1)c1ccccc1 | inconclusive: 46.7%
40 | Cc1ccccc1OCC(=O)Nc1ccc2c(c1)OCCO2 | inconclusive: 45.9%
41 | N#CC1=C(N)N2C(=C(C#N)C13CCCCC3)SC1CCCCC12O (configuration not stated) | inconclusive: 34.1%
42 | Cc1ccn2c(NC3CCCC3)c(-c3ccsc3)nc2c1 | inconclusive: 39.3%
43 | COc1ccc(/C=C/C(=O)N(CC(C)C)CC(C)C)cc1Br | inconclusive: 52.6%
44 | CCOCCCNC(=O)c1ccc(N2CCCC2)c(NS(=O)(=O)c2ccc(C)cc2)c1 | inconclusive: 75%
45 | COc1ccc(CNc2nc3ccccc3n2CCN2CCCCC2)c(OC)c1 | inconclusive: 42.6%
46 | Cc1cccc(C(=O)Nc2cc(OCc3cccc(F)c3)c(Cl)cc2Cl)c1 | inconclusive: 31.6%
47 | COc1ccc(CNS(=O)(=O)c2ccc3c(c2)CCN3C(=O)C2CCC2)cc1 | inactive: 4.92%
48 | Cc1cc(C)nc(/N=C(\N)N2CCc3ccccc32)n1 | inconclusive: 39.1%
49 | COc1ccc(N2CCn3c2nc2c3c(=O)n(CCCc3ccccc3)c(=O)n2C)c(OC)c1 | inactive: 9.13%
50 | COc1ccccc1CNc1nc2ccccc2n1CCN1CCCCC1 | inconclusive: 33.8%
51 | CC(NC(=O)c1ccc(CS(C)(=O)=O)cc1)c1cccc2ccccc12 (configuration not stated) | inconclusive: 74.8%
52 | CCCn1c(SCC(=O)C(C)(C)C)nc2ccccc21 | inconclusive: 40.3%
53 | Fc1ccc(Cn2cnc3ccccc32)cc1 | inactive: -1.18%
54 | c1ccc(-c2cc3c(-n4cccc4)ncnc3o2)cc1 | inconclusive: 43.7%
55 | N#C/C(=N/Nc1ccc([N+](=O)[O-])cc1)C(=N)N1CCCCC1 | inconclusive: 47.3%
56 | CCOc1ccccc1C(=O)OCC(=O)NCCNC(=O)COC(=O)c1ccccc1OCC | inactive: 1.99%
57 | Cc1ccc(O)c(C(=O)CC(=O)c2ccc(C(C)(C)C)cc2)c1 | inactive: 21%

Three of these compounds in a different format.

| Row | SMILES | activation |
| --- | --- | --- |
| 42 | Cc1ccn2c(NC3CCCC3)c(-c3ccsc3)nc2c1 | inconclusive: 39.3% |
| 43 | COc1ccc(/C=C/C(=O)N(CC(C)C)CC(C)C)cc1Br | inconclusive: 52.6% |
| 44 | CCOCCCNC(=O)c1ccc(N2CCCC2)c(NS(=O)(=O)c2ccc(C)cc2)c1 | inconclusive: 75% |
